Literature values, collected in patent US20220257527A1, “ORALLY ADMINISTRABLE FILMS COMPRISING POORLY WATER SOLUBLE ACTIVE INGREDIENTS AND PREPARATION THEREOF” (MAABAROT PRODUCTS LTD., priority 2019, published 2022).

Settings: in water; also printed as ppm

water solubility: 2 to 3 µg/mL
SMILES: COC1=C(OC)C(=O)C(C/C=C(\C)CC/C=C(\C)CC/C=C(\C)CC/C=C(\C)CC/C=C(\C)CC/C=C(\C)CC/C=C(\C)CC/C=C(\C)CC/C=C(\C)CCC=C(C)C)=C(C)C1=O [CoQ10, coenzyme Q10]
